No constants are given. Whether binding was seen depends on the method and setting. In cells and extracts the contact can be indirect. A result given as binding can be weak or reduced; the word gives no strength.
Target: T1, POGZ (in 293 T cells) (UniProt Q8BZH4)
T1 sequence: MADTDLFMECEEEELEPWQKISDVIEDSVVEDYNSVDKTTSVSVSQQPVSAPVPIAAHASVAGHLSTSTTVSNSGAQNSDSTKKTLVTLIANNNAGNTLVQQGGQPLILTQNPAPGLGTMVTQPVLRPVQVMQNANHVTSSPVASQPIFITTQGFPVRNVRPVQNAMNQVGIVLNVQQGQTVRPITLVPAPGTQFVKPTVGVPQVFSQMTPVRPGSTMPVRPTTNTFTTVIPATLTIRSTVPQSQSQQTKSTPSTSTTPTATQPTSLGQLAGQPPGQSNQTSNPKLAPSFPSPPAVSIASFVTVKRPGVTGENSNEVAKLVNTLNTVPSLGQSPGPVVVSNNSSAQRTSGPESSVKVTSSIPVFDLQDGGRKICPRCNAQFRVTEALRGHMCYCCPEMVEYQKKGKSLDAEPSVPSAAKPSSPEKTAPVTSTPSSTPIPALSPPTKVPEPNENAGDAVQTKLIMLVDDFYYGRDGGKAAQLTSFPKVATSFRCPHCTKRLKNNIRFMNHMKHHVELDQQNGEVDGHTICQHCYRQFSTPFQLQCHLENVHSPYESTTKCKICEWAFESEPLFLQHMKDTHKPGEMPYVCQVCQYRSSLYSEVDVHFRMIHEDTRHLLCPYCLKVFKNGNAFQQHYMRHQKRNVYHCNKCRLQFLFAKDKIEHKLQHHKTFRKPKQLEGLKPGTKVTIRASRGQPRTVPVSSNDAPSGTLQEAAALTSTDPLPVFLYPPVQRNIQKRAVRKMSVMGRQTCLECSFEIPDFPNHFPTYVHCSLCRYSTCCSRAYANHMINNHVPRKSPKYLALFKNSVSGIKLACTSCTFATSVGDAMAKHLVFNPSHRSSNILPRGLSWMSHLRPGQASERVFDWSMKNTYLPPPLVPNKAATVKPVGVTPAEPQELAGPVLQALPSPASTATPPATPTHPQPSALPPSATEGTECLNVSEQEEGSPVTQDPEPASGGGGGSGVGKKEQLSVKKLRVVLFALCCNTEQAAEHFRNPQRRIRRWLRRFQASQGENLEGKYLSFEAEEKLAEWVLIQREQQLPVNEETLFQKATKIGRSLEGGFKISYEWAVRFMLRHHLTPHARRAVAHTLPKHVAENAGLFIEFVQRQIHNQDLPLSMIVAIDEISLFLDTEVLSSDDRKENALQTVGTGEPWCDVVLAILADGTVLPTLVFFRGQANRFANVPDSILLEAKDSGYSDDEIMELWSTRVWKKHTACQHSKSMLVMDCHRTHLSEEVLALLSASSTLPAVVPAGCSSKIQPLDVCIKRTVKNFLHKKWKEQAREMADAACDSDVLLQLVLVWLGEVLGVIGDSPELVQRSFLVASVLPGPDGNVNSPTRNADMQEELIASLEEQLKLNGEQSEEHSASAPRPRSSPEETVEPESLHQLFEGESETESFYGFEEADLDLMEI
Experiment: co-IP; tagged constructs in 293 T cells; total cell lysate with antibody-conjugated Dynabeads Protein G (anti-POGZ, anti-FLAG or anti-HA) overnight at 4 °C; Western blot

binding: binds
Substance: FLAG-tagged C-terminal fragment of BRG1 (in 293 T cells) (domain or fragment)

From paper PMC9161502
